This is one part of the list.
Legend:
[1] = target: SNRPD3_P62318_20_VLHEAEGHIVTCETNTGEVYR (UniProt P62318); assay: probe-labelled cysteine peptide fold change vs DMSO (competition) (log2 fold change); higher = less target engagement (more negative = stronger competition); conditions: THP-1, incubation time: 4 h
[2] = target: SPART_Q8N0X7_405_DTSSEEVNLSHIVPCEPVPEEKPK (UniProt Q8N0X7); assay: as above; conditions: THP-1, incubation time: 4 h
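Note: competitive chemoproteomic profiling in live THP-1 cells with an iodoacetamide desthiobiotin (IA-DTB) probe, comparing probe-labelled peptide intensities in compound-treated cells against DMSO-treated controls.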

The chains behind the UniProt entries cited, without tags or fusion partners. Where a name states a change or a piece, a line headed by the entry shows the natural chain unless it says otherwise.
UniProt P62318, whole entry, looked up: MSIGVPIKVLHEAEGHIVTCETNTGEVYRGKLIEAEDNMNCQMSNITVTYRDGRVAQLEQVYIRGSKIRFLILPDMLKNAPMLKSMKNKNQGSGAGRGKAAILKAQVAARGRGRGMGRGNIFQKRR
UniProt Q8N0X7: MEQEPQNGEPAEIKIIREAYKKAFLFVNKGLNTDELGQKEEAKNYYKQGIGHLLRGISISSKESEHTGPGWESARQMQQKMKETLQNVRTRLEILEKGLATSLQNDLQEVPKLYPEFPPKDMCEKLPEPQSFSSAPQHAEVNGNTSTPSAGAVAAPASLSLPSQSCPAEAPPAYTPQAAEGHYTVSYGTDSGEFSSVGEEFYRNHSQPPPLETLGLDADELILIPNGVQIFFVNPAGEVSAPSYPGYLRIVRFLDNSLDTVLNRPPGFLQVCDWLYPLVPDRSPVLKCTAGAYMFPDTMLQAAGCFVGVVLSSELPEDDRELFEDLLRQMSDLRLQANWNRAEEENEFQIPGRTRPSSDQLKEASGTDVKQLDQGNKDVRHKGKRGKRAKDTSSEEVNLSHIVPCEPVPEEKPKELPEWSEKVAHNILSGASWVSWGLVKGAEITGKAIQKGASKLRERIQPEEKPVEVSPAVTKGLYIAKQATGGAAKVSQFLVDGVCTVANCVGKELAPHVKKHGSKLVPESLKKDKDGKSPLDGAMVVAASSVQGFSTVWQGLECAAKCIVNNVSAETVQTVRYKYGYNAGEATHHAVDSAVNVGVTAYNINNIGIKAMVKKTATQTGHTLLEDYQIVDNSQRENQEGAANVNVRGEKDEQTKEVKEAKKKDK

SMILES: CC1Cc2ccccc2N1C(=O)C1CCCN(C(=O)CCl)C1 (mixture of isomers) [TRIM25 ligand 11 (diastereomer mixture)]
- probe-labelled cysteine peptide fold change ([1]; 10 µM): 0.0412
- probe-labelled cysteine peptide fold change ([1]; 50 µM): -0.0106
- probe-labelled cysteine peptide fold change ([2]; 10 µM): -0.0604
- probe-labelled cysteine peptide fold change ([2]; 50 µM): -0.27
